The target in assay [1] is T1, His-Hth and untagged Exd heterodimers (Drosophila) (UniProt O46339+P40427).
T1 sequence 1: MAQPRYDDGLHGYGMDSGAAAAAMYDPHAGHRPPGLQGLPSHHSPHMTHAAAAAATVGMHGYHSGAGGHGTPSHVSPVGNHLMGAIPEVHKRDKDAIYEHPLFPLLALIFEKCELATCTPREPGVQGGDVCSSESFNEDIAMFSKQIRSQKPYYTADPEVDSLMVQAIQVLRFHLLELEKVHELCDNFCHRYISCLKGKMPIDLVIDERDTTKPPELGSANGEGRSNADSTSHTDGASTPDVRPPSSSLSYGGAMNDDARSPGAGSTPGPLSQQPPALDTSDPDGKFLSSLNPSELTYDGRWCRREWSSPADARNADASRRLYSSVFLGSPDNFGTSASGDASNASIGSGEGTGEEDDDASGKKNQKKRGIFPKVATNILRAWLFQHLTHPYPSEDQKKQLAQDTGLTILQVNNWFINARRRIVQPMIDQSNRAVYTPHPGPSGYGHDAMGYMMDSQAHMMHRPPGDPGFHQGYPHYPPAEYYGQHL
T1 sequence 2: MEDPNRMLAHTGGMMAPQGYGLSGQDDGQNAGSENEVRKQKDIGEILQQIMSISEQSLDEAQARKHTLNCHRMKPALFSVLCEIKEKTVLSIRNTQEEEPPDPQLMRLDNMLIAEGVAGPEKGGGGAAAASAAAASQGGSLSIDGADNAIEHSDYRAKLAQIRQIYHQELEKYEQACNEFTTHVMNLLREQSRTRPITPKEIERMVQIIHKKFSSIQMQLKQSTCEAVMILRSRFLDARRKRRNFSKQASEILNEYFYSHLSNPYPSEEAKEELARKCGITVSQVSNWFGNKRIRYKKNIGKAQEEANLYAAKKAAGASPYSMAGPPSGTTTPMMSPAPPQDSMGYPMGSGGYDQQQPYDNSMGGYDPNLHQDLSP
The assay can be described thus: native gel or EMSA; purified proteins on IRdye700-labelled DNA probes with the Hox/TALE sites of PntP1OE; native polyacrylamide gel; complexes seen on DNA; equimolar Abd-A and Antp compared; both purified. Background: Mobility shift assays separate free from complexed probe on a gel.

By UniProt entry, the sequences of proteins in these tests, tags left out.
UniProt P29555: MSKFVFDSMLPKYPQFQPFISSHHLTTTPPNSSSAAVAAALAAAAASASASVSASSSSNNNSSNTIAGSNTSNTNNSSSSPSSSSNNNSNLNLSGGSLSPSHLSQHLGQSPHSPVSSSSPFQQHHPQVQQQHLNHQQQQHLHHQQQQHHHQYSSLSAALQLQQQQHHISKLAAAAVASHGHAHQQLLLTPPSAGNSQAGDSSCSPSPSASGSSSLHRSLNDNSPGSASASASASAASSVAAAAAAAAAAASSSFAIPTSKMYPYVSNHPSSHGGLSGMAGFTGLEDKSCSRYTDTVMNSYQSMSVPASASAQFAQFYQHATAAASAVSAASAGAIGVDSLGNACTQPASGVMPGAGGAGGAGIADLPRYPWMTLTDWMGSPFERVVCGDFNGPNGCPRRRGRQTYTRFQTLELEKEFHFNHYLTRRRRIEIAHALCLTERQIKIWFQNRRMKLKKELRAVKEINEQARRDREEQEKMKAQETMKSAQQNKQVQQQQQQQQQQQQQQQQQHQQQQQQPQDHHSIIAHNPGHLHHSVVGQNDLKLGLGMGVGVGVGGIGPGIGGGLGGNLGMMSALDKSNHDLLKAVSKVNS

Assay [2] has as its target T2, Homothorax (Hth), His-tagged (Drosophila) (UniProt O46339).
T2 sequence: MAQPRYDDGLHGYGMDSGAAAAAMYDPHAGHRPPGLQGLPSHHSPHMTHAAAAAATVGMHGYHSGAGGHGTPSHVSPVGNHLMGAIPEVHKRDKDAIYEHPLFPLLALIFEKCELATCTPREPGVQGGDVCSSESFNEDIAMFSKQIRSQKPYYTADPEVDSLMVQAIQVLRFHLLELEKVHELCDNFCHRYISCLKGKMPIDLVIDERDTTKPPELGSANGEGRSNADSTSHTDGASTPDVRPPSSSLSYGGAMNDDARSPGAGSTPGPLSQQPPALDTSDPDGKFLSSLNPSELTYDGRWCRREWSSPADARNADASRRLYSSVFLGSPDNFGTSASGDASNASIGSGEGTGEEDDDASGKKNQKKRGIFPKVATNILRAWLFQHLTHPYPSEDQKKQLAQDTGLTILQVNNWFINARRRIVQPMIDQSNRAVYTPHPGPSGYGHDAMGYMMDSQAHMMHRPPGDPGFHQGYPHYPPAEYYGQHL
The assay can be described thus: co-purification; His-Hth and untagged Exd purified together as heterodimers from BL21 bacterial cells, as previously described.

No constants are given. Whether binding was seen depends on the method and setting. Some binding calls cover weakened binding; strength is not graded here. Where a sequence is shown, tags or fusion partners need not be part of it.

Take “Abdominal-A (Abd-A) Hox factor, His-tagged (from UniProt P29555 1-590)”: the binding result in assay [1] was “binds”.

B1: Extradenticle (Exd), untagged (protein, UniProt P40427 1-376)
chain: MEDPNRMLAHTGGMMAPQGYGLSGQDDGQNAGSENEVRKQKDIGEILQQIMSISEQSLDEAQARKHTLNCHRMKPALFSVLCEIKEKTVLSIRNTQEEEPPDPQLMRLDNMLIAEGVAGPEKGGGGAAAASAAAASQGGSLSIDGADNAIEHSDYRAKLAQIRQIYHQELEKYEQACNEFTTHVMNLLREQSRTRPITPKEIERMVQIIHKKFSSIQMQLKQSTCEAVMILRSRFLDARRKRRNFSKQASEILNEYFYSHLSNPYPSEEAKEELARKCGITVSQVSNWFGNKRIRYKKNIGKAQEEANLYAAKKAAGASPYSMAGPPSGTTTPMMSPAPPQDSMGYPMGSGGYDQQQPYDNSMGGYDPNLHQDLSP
Consider B1, for which the binding result in assay [2] was “binds”.

Source of the values: paper PMC5536354.
